Measurements published in PubChem BioAssay AID2685 (National Center for Advancing Translational Sciences (NCATS), 2010).
This is one part of the list. Shown are side measurements of this screen, not its main read-out; they come without a call. Compounds called inactive in the main read-out are mostly missing here. Potencies come from curve fits of mixed quality, noted in brackets.

Experiment: qHTS Assay for Lipid Storage Modulators in Drosophila S3 Cells;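 on cell number change: cells counted by Cell Tracker Red CMTPX staining in the red channel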
Conditions: BODIPY lipid droplet fluorescence, 18-24 h; for cell number change: measured here: cell count max response, cells fed with added oleic acid
Summary of the method: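 Drosophila S3 cells got compounds at several concentrations plus oleic acid (400 uM solution). Laser-scanning cytometry with 488 nm excitation read lipid droplets at 500-530 nm and cells at 575-640 nm. Percent activity was relative to 20 uM Triacsin C.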

[1] = measured here: cell number channel AC50, cells fed with added oleic acid
[2] = measured here: lipid fluorescence (Fed channel) AC50, cells fed with added oleic acid

Row | SMILES | cell number change [%] | AC50 [1] | AC50 [2]
1 | CC1CN(S(=O)(=O)c2ccc(C(=O)O)cc2)CC(C)O1 (stereo not drawn) | -50.6 | 20.6 µM [falling, single point] | 
2 | O=C(c1ccccc1)N1CCN(C(=O)c2cc3ccccc3oc2=O)CC1 | -16.7 |  | 
3 | C(=N\Nc1nc2ccccc2[nH]1)/c1cccs1 | -46.1 | 29.1 µM [falling, single point] | 23.1 µM [falling, partial curve]
4 | Cc1cc(C)c(NC(=O)COC(=O)/C=C/c2cccc(C(F)(F)F)c2)c(C)c1 | 7.69 |  | 0.411 µM [rising, single point]
5 | CCCCc1nnc(NC(=O)CN2C(=O)c3ccccc3C2=O)s1 | 8.52 |  | 6.31 µM [falling, single point]
6 | CCOc1ccc(CN2CCNC(=O)C2CC(=O)NCCN2CCOC2=O)cc1 (stereo not drawn) | -25.2 | 0.00164 µM [falling, full curve] | 
7 | CC12CN3CCN(CC(C3)C1(O)CN1CCOCC1)C2 (stereo not drawn) |  |  | 1.46 µM [falling, full curve]
8 | Cc1occc1C(=O)NCc1ccccn1 | -78.2 | 32.6 µM [falling, single point] | 29.1 µM [falling, single point]
9 | Cc1ccc2c(c1)N(CC(=O)N1CCN(C3CCCCC3)CC1)C(=O)CO2 | 20.9 | 2.31 µM [rising, partial curve, poor fit] | 29.1 µM [rising, single point]
10 | CSc1ccc(-c2nc(CN3CCCCC3c3cccnc3)c(C)o2)cc1 (stereo not drawn) | -15.6 |  | 29.1 µM [falling, single point]
11 | CC1=CC(C)(C)Nc2ccc(OC(=O)CN3C(=O)c4ccccc4C3=O)cc21 | -32.1 | 29.1 µM [falling, single point] | 0.092 µM [rising, full curve, poor fit]
12 | Cc1c(N(C(=O)Nc2ccccc2)C2=NCC(C)S2)c(=O)n(-c2ccccc2)n1C (stereo not drawn) | -0.406 |  | 
13 | O=C(CCNC(=O)c1ccc([N+](=O)[O-])cc1)Nc1nc2ccccc2[nH]1 | 5.22 |  | 
14 | COc1ccc(C2C(C(=O)c3cccs3)=C(O)C(=O)N2CCN2CCOCC2)c(OC)c1 (stereo not drawn) | -23.4 |  | 29.1 µM [falling, partial curve, poor fit]
15 | O=C(C1CCN(S(=O)(=O)c2cccnc2)CC1)N1CCN(c2ccccc2Cl)CC1 | 8.22 | 2.06 µM [rising, single point] | 0.13 µM [rising, full curve, poor fit]
16 | Cc1sc2ncnc(SCC(=O)NC3CCCC3)c2c1C | 10 |  | 
17 | Cc1nc(SCc2ccc(C(=O)O)cc2)c2c(C)c(C)sc2n1 | -1.38 |  | 6.51 µM [falling, single point]
18 | COc1ccccc1CNC(=O)c1ccc(NS(C)(=O)=O)cc1 | 7.94 |  | 
19 | CC(C)(C)c1ccc(CN2N=C(/C=C/c3ccccc3)CCC2=O)cc1 |  |  | 0.146 µM [rising, full curve, poor fit]
20 | CCOC(=O)C1=C(C)Nc2nnnn2C1c1ccccc1Cl (stereo not drawn) | -40.2 |  | 14.6 µM [falling, partial curve, poor fit]
21 | CC(OC(=O)c1cc2sccc2n1C)C(=O)NCc1ccco1 (stereo not drawn) | 90.2 | 8.2 µM [rising, partial curve] | 

Excerpt: nos. 4 to 5
Row | SMILES | cell number change [%] | AC50 [1] | AC50 [2]
4 | Cc1cc(C)c(NC(=O)COC(=O)/C=C/c2cccc(C(F)(F)F)c2)c(C)c1 | 7.69 |  | 0.411 µM [rising, single point]
5 | CCCCc1nnc(NC(=O)CN2C(=O)c3ccccc3C2=O)s1 | 8.52 |  | 6.31 µM [falling, single point]

Next part.

Row | SMILES | cell number change [%] | AC50 [1] | AC50 [2]
22 | O=C(CCCSc1nc2sc3c(c2c(=O)[nH]1)CCC3)NCCO | 0.485 |  | 
23 | Cc1ccc2c(Cl)cc(Cl)c(OCc3c(C)noc3C)c2n1 | -8.91 |  | 0.411 µM [rising, full curve]
24 | O=C(NCC1CCCO1)c1cc2c(s1)CCCC2 (stereo not drawn) | 16 |  | 
25 | CC(C)CC(=O)NC(=S)Nc1ccc(S(=O)(=O)NC(C)(C)C)cc1 | 10.2 |  | 32.6 µM [falling, single point]
26 | Cc1nn(C)cc1S(=O)(=O)Nc1ccc(F)c(F)c1 | -22.7 |  | 
27 | CCOC(=O)C1=C(c2ccccc2)NC(=O)NC1c1ccsc1 (stereo not drawn) | 26 |  | 0.651 µM [falling, partial curve, poor fit]
28 | O=C(NNC(=S)NCc1ccc(Cl)cc1)c1ccc(Br)o1 | -29.2 |  | 29.1 µM [falling, single point]
29 | CC(=O)c1cccc(NC(=O)/C(=C\c2cccnc2)NC(=O)c2ccccc2)c1 | 12.4 | 1.84 µM [rising, single point] | 
30 | COc1ccc2nc(SCC(=O)Nc3ccccc3)[nH]c2c1 | -57.5 | 23.1 µM [falling, single point] | 
31 | NC(=O)CC(NC(=O)Cc1ccc(Br)cc1)c1ccc(N2CCN(c3ccc(F)cc3)CC2)c([N+](=O)[O-])c1 (stereo not drawn) | -0.319 |  | 3.26 µM [falling, partial curve, poor fit]
32 | COc1ccccc1C(=O)Nc1ccc(S(=O)(=O)Nc2cc(C)on2)cc1 |  | 0.103 µM [rising, full curve, poor fit] | 
33 | CC(=O)c1ccc(-c2ccc(C(=O)NCC(c3ccc(F)cc3)N3CCOCC3)o2)cc1 (stereo not drawn) | -0.679 |  | 0.58 µM [falling, full curve, poor fit]
34 | NS(=O)(=O)c1ccc(NC(=O)CN2C(=O)CCC2=O)cc1 | -13.8 |  | 
35 | COc1cc(C(=O)Nc2ccc(-c3nnc(-c4ccco4)o3)cc2)cc(OC)c1OC | -34.4 | 29.1 µM [falling, single point] | 23.1 µM [falling, single point]
36 | CCSc1nc2c(c(=O)[nH]1)C(c1ccncc1)C(C(=O)OC(C)C)=C(C)N2 (stereo not drawn) | -16 |  | 
37 | COc1ccccc1/C=C/C(=O)OCC(=O)Nc1c(C)nn(-c2ccccc2)c1C | 13.8 |  | 16.4 µM [rising, partial curve]
38 | CC1CC(C)CN(C/C=C/c2ccccc2[N+](=O)[O-])C1 (stereo not drawn) | -13 | 0.146 µM [rising, full curve, poor fit] | 
39 | CC(C)COc1ccc(C(=O)NC(CC(C)C)C(=O)O)cc1 (stereo not drawn) | -12.2 | 0.13 µM [falling, full curve, poor fit] | 4.11 µM [falling, full curve, poor fit]
40 | COc1ccc(-c2c(C#Cc3ccsc3)c3ccccc3n2C)cc1 | 5.83 |  | 
41 | C=CCn1c(SCC(=O)Nc2ccc(N3CCOCC3)cc2)nnc1-c1ccco1 | -13.2 |  | 35.5 µM [rising, single point]
42 | CCc1cccc(NC(=O)CCSCCC(=O)Nc2cccc(CC)c2)c1 | -3.94 |  | 

Entries listed so far with bromine, in the order listed:
Row | SMILES | cell number change [%] | AC50 [1] | AC50 [2]
28 | O=C(NNC(=S)NCc1ccc(Cl)cc1)c1ccc(Br)o1 | -29.2 |  | 29.1 µM [falling, single point]
31 | NC(=O)CC(NC(=O)Cc1ccc(Br)cc1)c1ccc(N2CCN(c3ccc(F)cc3)CC2)c([N+](=O)[O-])c1 (stereo not drawn) | -0.319 |  | 3.26 µM [falling, partial curve, poor fit]

The list continues:

Row | SMILES | cell number change [%] | AC50 [1] | AC50 [2]
43 | Clc1ccc(-c2nn3c(-c4ccccc4)nnc3s2)cc1 | -16.4 |  | 2.91 µM [falling, partial curve, poor fit]
44 | CC(=O)c1ccc(S(=O)(=O)NCCCC(=O)NCCc2ccccn2)cc1 | 4.9 |  | 0.82 µM [rising, partial curve, poor fit]
45 | CC(=O)N1CCN(C(=S)Nc2ccc(Oc3ccccc3)cc2)CC1 |  | 6.51 µM [falling, single point] | 
46 | Cc1nc(COC(=O)c2ccc(CO)cc2)cs1 | -55.1 | 1.64 µM [falling, partial curve] | 
47 | Cc1cccc(C)c1NC(=O)CN(C)C(=O)c1cccc(S(=O)(=O)N2CCN(c3ccc(F)cc3)CC2)c1 | -24 |  | 0.82 µM [falling, single point]
48 | CCC(=O)NC(=S)Nc1ccc(NC(=S)NC(=O)c2ccc(C)cc2)cc1 | 16.9 |  | 2.91 µM [rising, single point]
49 | CCN(CC)C(=O)Cn1cc(S(=O)(=O)CC(=O)N2CCCCCC2)c2ccccc21 | -25.8 |  | 20.6 µM [falling, single point]
50 | CCCCn1c(N)c(N(CCOC)C(=O)CSCC(=O)Nc2cccc(C)c2)c(=O)[nH]c1=O | 21 | 0.291 µM [rising, full curve, poor fit] | 
51 | CC#CCN1c2ccccc2[C@]23C[C@@H](C(=O)OC)N(C(C)=O)C2=NC(C(=O)OC)=C(C(=O)OC)[C@H]13 | 9.15 | 0.0731 µM [rising, full curve, poor fit] | 
52 | COc1ccc(N(CC(=O)Nc2ccccc2C(=O)NCCc2ccccc2)S(C)(=O)=O)cc1OC | 25.1 |  | 29.1 µM [rising, single point]
53 | COc1ccc(/C=C2/SC(=S)N(Cc3ccccc3)C2=O)cc1O |  |  | 20.6 µM [falling, partial curve]
54 | Cc1cc(C)cc(OCC(=O)OCC(=O)c2ccc3c(c2)NC(=O)CO3)c1 | -34.5 | 3.26 µM [falling, full curve] | 6.51 µM [falling, single point]
55 | COc1cccc(=O)c2c(C)oc(C)c12 | 12.3 |  | 0.00517 µM [rising, full curve, poor fit]
56 | CC(C)Cc1ccc(C(C)C(N)=NCCc2ccccc2)cc1 (stereo not drawn) | -35.5 | 18.4 µM [falling, single point] | 
57 | Cc1ccc(-c2noc(-c3ccccc3C(=O)NCC3CCCO3)n2)cc1 (stereo not drawn) |  |  | 3.66 µM [falling, single point]
58 | CCN(CC)c1ccc(/C=N/NC(=O)CC(C)C)cc1 | 12.3 |  | 
59 | COCCCn1c(=O)c2ccccc2n(CC(=O)NC2CCCC2)c1=O | 0.84 |  | 29.1 µM [rising, single point]
60 | CC(=O)Nc1ccc(S(=O)(=O)NCCC(=O)OC(C)C(=O)c2ccc(C)cc2)cc1 (stereo not drawn) | -50 | 20.6 µM [falling, partial curve] | 
61 | CCOCCCN(C(=O)Cn1nnc(-c2ccc(C)o2)n1)C(C(=O)NC1CCCC1)c1ccc(C)o1 (stereo not drawn) | 4.84 |  | 29.1 µM [rising, single point]
62 | COC(=O)c1c(NC(=O)/C=C/C(=O)O)sc(C)c1-c1ccc(C)c(C)c1 | -2.62 |  | 3.26 µM [falling, full curve]
